This is an account of results in publication PMC8225803.

By UniProt entry, the sequences of proteins in these tests, tags left out.
UniProt P12270: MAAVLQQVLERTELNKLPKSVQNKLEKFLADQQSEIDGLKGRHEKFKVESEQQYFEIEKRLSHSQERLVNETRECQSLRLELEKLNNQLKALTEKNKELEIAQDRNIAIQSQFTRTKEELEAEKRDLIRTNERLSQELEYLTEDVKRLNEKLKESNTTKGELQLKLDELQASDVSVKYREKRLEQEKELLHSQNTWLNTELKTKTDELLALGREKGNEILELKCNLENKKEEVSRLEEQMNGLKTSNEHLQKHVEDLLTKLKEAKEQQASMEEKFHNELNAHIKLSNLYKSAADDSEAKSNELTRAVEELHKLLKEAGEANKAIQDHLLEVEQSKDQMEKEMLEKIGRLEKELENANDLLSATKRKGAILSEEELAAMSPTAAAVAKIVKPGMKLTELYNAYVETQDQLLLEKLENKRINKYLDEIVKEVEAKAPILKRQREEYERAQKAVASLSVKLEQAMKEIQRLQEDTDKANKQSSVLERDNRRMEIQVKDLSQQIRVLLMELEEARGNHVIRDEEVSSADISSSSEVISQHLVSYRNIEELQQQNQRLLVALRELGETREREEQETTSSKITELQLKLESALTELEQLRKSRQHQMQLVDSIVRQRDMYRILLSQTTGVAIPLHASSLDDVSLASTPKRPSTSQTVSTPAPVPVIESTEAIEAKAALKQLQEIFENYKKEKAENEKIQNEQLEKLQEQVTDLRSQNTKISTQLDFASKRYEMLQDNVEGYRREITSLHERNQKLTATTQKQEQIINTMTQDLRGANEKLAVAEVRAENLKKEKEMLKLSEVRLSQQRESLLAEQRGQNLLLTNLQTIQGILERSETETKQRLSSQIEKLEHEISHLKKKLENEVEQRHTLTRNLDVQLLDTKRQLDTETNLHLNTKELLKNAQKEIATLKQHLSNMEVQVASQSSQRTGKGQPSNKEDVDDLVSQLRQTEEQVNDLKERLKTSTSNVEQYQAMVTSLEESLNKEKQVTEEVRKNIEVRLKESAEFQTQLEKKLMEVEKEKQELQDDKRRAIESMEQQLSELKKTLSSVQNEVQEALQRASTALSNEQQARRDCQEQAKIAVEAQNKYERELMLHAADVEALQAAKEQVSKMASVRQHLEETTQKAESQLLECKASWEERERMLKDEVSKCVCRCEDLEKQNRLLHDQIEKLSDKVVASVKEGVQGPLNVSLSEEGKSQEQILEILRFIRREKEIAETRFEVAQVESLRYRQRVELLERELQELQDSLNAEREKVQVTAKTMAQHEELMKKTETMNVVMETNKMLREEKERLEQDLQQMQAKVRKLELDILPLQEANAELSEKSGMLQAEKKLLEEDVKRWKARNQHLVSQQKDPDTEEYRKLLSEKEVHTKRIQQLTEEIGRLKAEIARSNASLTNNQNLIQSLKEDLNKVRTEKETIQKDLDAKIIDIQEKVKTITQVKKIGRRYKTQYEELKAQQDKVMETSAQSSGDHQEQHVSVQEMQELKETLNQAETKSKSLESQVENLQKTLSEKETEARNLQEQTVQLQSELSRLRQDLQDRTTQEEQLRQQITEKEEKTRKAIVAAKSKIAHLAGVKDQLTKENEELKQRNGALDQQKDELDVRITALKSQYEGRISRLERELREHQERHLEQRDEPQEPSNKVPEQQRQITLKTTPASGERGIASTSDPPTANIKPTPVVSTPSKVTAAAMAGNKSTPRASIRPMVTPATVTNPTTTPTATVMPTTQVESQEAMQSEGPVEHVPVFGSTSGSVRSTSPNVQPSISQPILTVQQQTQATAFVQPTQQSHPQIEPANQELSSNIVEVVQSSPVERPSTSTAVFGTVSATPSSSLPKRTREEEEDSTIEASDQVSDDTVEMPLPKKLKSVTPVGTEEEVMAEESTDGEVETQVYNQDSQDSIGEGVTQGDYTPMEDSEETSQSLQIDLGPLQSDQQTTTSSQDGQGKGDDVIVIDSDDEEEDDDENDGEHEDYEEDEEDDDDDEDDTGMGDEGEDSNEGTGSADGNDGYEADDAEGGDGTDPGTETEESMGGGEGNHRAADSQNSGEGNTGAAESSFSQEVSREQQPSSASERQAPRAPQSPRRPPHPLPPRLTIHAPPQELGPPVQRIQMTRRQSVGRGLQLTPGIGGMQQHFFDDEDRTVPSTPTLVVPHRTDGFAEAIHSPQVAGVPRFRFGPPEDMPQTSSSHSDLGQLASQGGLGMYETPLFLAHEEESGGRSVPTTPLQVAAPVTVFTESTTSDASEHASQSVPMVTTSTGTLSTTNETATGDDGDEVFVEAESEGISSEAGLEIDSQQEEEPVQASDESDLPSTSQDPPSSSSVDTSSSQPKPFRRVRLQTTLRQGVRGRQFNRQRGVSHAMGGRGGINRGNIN
UniProt O60318: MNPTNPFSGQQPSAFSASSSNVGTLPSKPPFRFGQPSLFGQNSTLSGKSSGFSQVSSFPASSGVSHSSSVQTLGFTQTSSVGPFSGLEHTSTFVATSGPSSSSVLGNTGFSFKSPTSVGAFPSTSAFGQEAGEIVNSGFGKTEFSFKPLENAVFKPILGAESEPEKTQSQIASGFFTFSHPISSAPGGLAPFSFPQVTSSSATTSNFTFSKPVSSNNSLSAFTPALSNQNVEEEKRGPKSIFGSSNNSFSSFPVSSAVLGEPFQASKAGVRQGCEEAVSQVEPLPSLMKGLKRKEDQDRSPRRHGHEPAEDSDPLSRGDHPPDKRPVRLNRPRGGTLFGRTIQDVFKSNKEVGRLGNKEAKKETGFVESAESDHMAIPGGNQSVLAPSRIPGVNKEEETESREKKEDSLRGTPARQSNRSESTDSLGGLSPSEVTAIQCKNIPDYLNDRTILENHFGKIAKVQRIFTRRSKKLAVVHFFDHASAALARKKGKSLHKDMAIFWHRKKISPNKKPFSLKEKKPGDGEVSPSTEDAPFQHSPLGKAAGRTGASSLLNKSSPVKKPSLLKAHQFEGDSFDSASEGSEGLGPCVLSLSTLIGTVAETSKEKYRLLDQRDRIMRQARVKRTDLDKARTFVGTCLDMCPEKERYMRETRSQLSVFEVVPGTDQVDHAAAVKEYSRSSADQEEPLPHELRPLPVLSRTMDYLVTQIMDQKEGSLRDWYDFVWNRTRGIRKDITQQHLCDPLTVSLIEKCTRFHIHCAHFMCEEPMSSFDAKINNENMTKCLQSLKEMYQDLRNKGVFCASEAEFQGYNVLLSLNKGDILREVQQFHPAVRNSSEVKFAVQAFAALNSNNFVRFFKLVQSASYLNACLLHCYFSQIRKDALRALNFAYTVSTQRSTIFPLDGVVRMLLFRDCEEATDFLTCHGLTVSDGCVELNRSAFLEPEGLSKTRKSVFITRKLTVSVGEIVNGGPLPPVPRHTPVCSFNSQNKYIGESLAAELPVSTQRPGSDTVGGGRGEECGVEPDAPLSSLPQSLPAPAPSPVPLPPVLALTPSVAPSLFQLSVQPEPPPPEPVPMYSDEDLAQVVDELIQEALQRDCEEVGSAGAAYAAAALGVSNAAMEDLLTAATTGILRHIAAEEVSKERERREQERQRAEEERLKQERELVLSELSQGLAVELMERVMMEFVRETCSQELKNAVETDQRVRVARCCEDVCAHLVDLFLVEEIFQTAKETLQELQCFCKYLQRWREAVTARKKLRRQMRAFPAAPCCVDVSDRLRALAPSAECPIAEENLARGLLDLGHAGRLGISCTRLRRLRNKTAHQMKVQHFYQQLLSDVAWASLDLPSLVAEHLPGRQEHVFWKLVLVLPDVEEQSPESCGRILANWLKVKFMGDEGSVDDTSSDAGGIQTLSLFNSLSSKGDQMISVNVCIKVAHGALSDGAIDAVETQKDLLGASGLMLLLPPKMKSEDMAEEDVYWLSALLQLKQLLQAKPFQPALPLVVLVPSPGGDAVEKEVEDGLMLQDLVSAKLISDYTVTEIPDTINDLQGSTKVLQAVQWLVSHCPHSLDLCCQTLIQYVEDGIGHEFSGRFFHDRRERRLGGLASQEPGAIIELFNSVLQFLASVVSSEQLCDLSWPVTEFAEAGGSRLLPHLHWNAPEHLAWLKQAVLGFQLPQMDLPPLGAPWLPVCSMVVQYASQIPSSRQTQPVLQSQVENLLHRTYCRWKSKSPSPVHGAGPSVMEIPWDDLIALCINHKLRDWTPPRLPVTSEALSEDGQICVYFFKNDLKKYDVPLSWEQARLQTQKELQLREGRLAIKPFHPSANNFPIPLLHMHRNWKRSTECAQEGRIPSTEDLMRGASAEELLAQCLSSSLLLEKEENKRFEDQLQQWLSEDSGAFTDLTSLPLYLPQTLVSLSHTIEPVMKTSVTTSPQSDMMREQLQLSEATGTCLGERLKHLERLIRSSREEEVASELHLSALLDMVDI

No constants are given. Whether binding was seen depends on the method and setting. In cells and extracts the contact can be indirect. Some entries that bind do so weakly or less than the wild type.

This assay deals with Tpr (translocated promoter region), endogenous (human (endogenous in U-2 OS)) (UniProt P12270). The assay can be described thus: co-IP; standard coimmunoprecipitation assay; benzonase-treated lysate, 20 mM Tris pH 8.0, 150 mM NaCl, 0.5% NP40, 1 mM EDTA, 1 mM MgCl2; GFP-Trap or Protein G-Sepharose with antibodies, overnight at 4 °C; which was used is not told in the text shown.

Consider “Minichromosome maintenance complex component 3 associated protein (from UniProt O60318 1-1980)”, for which the binding result is on record as “binds”.

B1: Matrin 3 (protein, UniProt P43243 1-847)
chain: MSKSFQQSSLSRDSQGHGRDLSAAGIGLLAAATQSLSMPASLGRMNQGTARLASLMNLGMSSSLNQQGAHSALSSASTSSHNLQSIFNIGSRGPLPLSSQHRGDADQASNILASFGLSARDLDELSRYPEDKITPENLPQILLQLKRRRTEEGPTLSYGRDGRSATREPPYRVPRDDWEEKRHFRRDSFDDRGPSLNPVLDYDHGSRSQESGYYDRMDYEDDRLRDGERCRDDSFFGETSHNYHKFDSEYERMGRGPGPLQERSLFEKKRGAPPSSNIEDFHGLLPKGYPHLCSICDLPVHSNKEWSQHINGASHSRRCQLLLEIYPEWNPDNDTGHTMGDPFMLQQSTNPAPGILGPPPPSFHLGGPAVGPRGNLGAGNGNLQGPRHMQKGRVETSRVVHIMDFQRGKNLRYQLLQLVEPFGVISNHLILNKINEAFIEMATTEDAQAAVDYYTTTPALVFGKPVRVHLSQKYKRIKKPEGKPDQKFDQKQELGRVIHLSNLPHSGYSDSAVLKLAEPYGKIKNYILMRMKSQAFIEMETREDAMAMVDHCLKKALWFQGRCVKVDLSEKYKKLVLRIPNRGIDLLKKDKSRKRSYSPDGKESPSDKKSKTDGSQKTESSTEGKEQEEKSGEDGEKDTKDDQTEQEPNMLLESEDELLVDEEEAAALLESGSSVGDETDLANLGDVASDGKKEPSDKAVKKDGSASAAAKKKLKKVDKIEELDQENEAALENGIKNEENTEPGAESSENADDPNKDTSENADGQSDENKDDYTIPDEYRIGPYQPNVPVGIDYVIPKTGFYCKLCSLFYTNEEVAKNTHCSSLPHYQKLKKFLNKLAEERRQKKET
For the molecule B1, the binding result is reported as “binds”.
